Among the data in publication PMC9295971 are binding values, retold here.

Protein sequences, listed by entry. Tags and fused reporters are not part of them.
UniProt P43354: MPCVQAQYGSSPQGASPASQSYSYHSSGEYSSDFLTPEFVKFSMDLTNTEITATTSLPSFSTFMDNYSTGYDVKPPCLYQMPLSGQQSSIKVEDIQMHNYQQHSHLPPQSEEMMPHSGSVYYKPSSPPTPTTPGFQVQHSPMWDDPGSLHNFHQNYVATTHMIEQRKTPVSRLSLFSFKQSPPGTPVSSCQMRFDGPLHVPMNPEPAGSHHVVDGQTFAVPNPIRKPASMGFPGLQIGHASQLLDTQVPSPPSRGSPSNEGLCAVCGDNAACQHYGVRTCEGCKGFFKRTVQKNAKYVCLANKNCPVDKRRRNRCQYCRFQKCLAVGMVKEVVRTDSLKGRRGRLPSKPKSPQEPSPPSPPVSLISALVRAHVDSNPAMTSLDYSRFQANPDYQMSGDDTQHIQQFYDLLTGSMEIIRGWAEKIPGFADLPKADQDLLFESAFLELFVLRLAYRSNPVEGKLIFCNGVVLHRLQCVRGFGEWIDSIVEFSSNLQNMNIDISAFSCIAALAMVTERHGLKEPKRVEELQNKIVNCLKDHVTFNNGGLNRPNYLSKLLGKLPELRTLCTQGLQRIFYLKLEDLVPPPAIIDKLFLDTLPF
UniProt Q9UKL0: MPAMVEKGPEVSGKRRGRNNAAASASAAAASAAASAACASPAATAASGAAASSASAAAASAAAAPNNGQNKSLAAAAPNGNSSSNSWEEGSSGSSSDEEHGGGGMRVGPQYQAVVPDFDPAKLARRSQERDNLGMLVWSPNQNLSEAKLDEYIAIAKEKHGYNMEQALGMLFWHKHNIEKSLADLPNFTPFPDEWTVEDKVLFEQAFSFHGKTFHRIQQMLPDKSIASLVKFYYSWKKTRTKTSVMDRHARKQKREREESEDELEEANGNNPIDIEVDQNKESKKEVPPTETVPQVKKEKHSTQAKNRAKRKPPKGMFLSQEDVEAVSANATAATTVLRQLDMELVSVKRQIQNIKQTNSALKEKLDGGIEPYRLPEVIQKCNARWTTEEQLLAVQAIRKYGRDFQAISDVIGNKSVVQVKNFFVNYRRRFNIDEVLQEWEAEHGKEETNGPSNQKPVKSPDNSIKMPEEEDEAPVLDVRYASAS
UniProt Q96KQ7: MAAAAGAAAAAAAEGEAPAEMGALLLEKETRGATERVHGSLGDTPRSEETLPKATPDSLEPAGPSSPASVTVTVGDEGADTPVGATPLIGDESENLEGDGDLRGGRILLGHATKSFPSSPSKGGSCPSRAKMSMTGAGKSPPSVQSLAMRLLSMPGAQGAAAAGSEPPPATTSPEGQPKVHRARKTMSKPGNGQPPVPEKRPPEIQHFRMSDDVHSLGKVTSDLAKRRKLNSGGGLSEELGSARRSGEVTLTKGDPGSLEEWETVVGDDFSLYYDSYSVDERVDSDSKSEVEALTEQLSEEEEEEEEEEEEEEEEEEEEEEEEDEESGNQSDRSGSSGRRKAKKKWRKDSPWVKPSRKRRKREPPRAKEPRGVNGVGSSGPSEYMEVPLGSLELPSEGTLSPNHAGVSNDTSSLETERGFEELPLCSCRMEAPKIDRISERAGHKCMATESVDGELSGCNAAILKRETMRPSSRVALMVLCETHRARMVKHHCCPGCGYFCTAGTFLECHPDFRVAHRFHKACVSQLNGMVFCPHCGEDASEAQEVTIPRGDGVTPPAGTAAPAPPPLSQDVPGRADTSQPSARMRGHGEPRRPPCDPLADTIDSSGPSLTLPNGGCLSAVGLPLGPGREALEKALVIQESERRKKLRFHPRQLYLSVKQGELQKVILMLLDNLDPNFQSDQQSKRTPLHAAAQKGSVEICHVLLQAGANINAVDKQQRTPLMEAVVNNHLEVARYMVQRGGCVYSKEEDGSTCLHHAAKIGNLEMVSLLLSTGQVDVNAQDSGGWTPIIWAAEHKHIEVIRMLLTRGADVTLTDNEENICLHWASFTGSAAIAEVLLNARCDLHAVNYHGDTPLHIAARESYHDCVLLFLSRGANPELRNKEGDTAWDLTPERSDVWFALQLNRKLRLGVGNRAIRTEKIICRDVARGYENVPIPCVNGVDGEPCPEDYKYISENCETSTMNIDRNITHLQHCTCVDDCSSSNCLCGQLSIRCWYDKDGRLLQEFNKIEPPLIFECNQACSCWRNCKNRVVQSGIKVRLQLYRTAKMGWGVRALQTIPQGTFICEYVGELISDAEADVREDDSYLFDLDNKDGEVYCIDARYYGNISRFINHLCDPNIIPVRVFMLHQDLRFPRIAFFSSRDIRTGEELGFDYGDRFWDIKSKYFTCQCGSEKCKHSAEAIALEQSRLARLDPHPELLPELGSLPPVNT
UniProt Q13547: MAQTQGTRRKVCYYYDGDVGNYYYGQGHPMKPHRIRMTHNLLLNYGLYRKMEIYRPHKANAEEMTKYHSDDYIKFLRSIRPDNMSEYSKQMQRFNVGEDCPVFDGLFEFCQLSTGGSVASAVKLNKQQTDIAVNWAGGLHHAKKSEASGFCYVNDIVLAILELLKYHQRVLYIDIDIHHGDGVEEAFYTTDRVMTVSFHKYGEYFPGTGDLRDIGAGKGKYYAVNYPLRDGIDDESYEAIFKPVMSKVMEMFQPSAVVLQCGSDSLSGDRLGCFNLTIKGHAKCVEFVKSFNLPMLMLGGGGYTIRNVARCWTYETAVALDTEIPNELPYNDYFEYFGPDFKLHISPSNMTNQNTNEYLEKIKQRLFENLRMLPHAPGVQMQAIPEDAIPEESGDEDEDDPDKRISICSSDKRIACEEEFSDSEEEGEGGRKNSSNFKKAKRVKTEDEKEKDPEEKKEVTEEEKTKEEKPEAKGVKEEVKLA

Results are given in words; binding and its absence hold for the method and conditions named. In cells and extracts the contact can be indirect. Some binding calls cover weakened binding; strength is not graded here.

Assay [1] concerns the target Nurr1 (NR4A2), endogenous (human (endogenous in HC69)) (UniProt P43354). Briefly: co-IP; total protein extracts of HC69 cells expressing control shRNA or NIK shRNAs precipitated with mouse monoclonal anti-Nurr1 antibody (control mouse IgG); Western blot for Nurr1, phospho-serine and CoREST; cells untreated, TNF-α 400 pg/ml for different times, or 24 hr TNF-α followed by a 24 hr chase. Background: Immunoblotting shows a protein as a band on a membrane.

Assay [2] has as its target 3X-FLAG-tagged Nurr1 (NR4A2), wild type (human) (UniProt P43354). As to the kind of experiment: co-IP; total protein lysates of HC69-3X-FLAG-Nurr1 cells (HC69-3X-FLAG-vector cells as control) precipitated with mouse monoclonal anti-FLAG antibody on magnetic beads; Western blot of the products; cells untreated, TNF-α 400 pg/ml for 4 hr or 24 hr, or 24 hr TNF-α followed by a 24 hr chase.

Turning to CoREST (from UniProt Q9UKL0 1-485), the binding result in assay [1] and in assay [2] was “binds” in each case.
With “euchromatic histone lysine N-methyltransferase 2 (G9a; EHMT2) (from UniProt Q96KQ7 1-1210)”, the binding entry in assay [2] is “binds”.
Consider “histone deacetylase 1 (HDAC1) (from UniProt Q13547 1-482)”, for which, in assay [2], the binding result was “binds”.
